Results are given in words; binding and its absence hold for the method and conditions named. Binding seen in cells or lysates may run through a third protein. Some binding calls cover weakened binding; strength is not graded here. For some of these results: Where a sequence is shown, tags or fusion partners need not be part of it.
How the values were obtained:
[1] = target: T1, YBEY-3 × FLAG (human), P58557; experiment: co-IP; α-FLAG antibody and protein A-sepharose on mitochondrial lysates of SAL001 cells expressing YBEY-3 × FLAG; parental cells as control; western blotting of lysate, flow-through, wash and IP fractions; conditions: remark: other sources report otherwise
T1 chain: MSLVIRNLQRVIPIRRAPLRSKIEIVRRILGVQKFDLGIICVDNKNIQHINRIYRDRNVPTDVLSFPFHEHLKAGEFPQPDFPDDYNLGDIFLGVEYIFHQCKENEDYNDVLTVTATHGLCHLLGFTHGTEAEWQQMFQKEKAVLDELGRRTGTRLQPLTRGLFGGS

[2] = target: T1, YBEY-3 × FLAG (human), P58557; experiment: FRET or BRET; indirect FLIM-FRET in fixed, immunolabelled SAL001 cells; donor Alexa Fluor 488, acceptor Alexa Fluor 555 on secondary antibodies; donor lifetime in the frequency domain; conditions: remark: other sources report otherwise
[3] = target: T2, YBEY-His6 (human), P58557; experiment: pull-down; YBEY-His6 and tagless p32 co-expressed in E. coli; cleared lysate on Ni-NTA agarose, native conditions (20 mM Tris-HCl pH 7.5, 150 mM KCl, 1 mM MgCl2), step elution with imidazole, 4°C; conditions: remark: other sources report otherwise
T2 chain: T1 chain

[4] = target: T2, YBEY-His6 (human), P58557; experiment: pull-down; cleared lysates of E. coli co-expressing YBEY-His6 and p32 and of E. coli expressing uS11m mixed 1:1, 30 min at 4°C, then Ni-NTA agarose, native conditions, step elution with imidazole; conditions: remark: other sources report otherwise
[5] = target: T1, YBEY-3 × FLAG (human), P58557; experiment: co-IP; cross-pulldown from total lysates of cells overexpressing YBEY-3 × FLAG and/or p32-HA; α-FLAG or α-HA antibody, protein A-sepharose; western blotting; conditions: remark: other sources report otherwise
p32-HA (human), Q07021 = target: T3, p32-HA (human), Q07021; experiment: as above; conditions: remark: other sources report otherwise
T3 chain: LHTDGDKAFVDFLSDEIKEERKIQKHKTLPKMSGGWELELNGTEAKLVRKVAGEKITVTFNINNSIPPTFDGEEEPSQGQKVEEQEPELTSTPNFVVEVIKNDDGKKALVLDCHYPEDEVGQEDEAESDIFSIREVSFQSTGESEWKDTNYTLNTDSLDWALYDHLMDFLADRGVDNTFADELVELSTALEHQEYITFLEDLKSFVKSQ

[6] = target: p32/C1QBP, endogenous (human (endogenous in Flp-In T-REx 293)) (UniProt Q07021); experiment: co-IP; α-p32 antibody (α-FLAG as negative control) and protein A-sepharose on mitochondrial lysate of Flp-In T-REx 293 cells; endogenous proteins; western blotting

B1: p32/C1QBP, endogenous, Q07021 74-282 (natural protein)
chain: T3 chain
In the case of B1, the binding [1] is reported as “binds” and the binding [2] is reported as “binds”.

B2: p32 (mature form, tagless), Q07021 74-282 (protein)
chain: T3 chain
For B2, the binding [3] was “binds” and the binding [4] was “binds”.

B3: p32-HA, Q07021 74-282 (protein)
chain: T3 chain
In the case of B3, the binding [5] is reported as “binds”.

B4: YBEY-3 × FLAG, P58557-1 1-167 (protein)
chain: T1 chain
For B4, the binding (p32-HA (human), Q07021) was “binds”.

B5: endogenous YBEY (protein, UniProt P58557-1 1-167)
chain: T1 chain
For B5, the binding [6] was “binds”.
